# The campaign covered roughly 330,000 compounds. About 230 (0.07%) were called active. Inconclusive results, whose numbers are uncertain, are shown with a selection of clear calls.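 Rule for the calls: active = more than half of a compound's replicate wells show inhibition beyond 50%, single wells judged on their own value; inconclusive = some, but no more than half, of replicates pass 50% inhibition; inactive = no replicate passes 50% inhibition.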
# Amino acid sequences for entries named in this document (tags omitted). Residues count along the entry.
# UniProt Q9H3R0, 1-420 limits assumed: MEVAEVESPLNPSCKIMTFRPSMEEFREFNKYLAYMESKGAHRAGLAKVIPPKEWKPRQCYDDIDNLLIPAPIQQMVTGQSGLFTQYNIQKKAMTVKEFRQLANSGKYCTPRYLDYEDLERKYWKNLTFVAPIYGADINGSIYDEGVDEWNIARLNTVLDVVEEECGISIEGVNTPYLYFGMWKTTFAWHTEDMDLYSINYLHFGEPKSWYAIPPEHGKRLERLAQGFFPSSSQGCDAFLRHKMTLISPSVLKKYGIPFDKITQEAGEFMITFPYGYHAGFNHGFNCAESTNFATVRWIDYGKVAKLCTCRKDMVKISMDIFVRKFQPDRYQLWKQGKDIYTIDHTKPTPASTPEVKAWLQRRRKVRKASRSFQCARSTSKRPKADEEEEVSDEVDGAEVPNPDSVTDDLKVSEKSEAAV
# Biological target: Lysine-specific demethylase 4C (Homo sapiens) (UniProt Q9H3R0)
# Assay: inhibitors of GASC-1 histone demethylase, primary screen, biochemical, fluorescence, DELFIA europium (AID 2099);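 note: signal counts dimethyl H3K9 product captured on neutravidin plate; 0% = median of DMSO wells and 100% = 0.3 times that DMSO median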
# Settings: GST-JMJD2C(1-420) H3K9me3 demethylation, at 2.35 µM, hits give high values
row,Compound,inhibition
1,Cc1ccc(NC(=O)CCC(=O)c2cccs2)c(Br)c1,inactive: -2.8%
2,COc1ccccc1Nc1nc(NCc2ccco2)c2ccccc2n1,inactive: -5.74%
3,CCC(CO)Oc1cc(NC(=O)c2cccc3ccccc23)c2ncn(C(C)C)c2c1 (stereo not given),active: 51.8%
4,Cc1c(OCC(=O)NCC(O)c2ccccc2)ccc2c3c(c(=O)oc12)CCCC3 (stereo not given),inconclusive: -88.7%
5,Cc1cccc(Nc2nn3c(=O)c4ccccc4nc3s2)c1,inconclusive: -52.9%
6,O=C(O)CCC1OC(=O)C(O)=C1c1ccccc1 (stereo not given),inconclusive: -181%
7,O=C(COc1ccccc1[N+](=O)[O-])N1CCN(c2ccccn2)CC1,inconclusive: -73.5%
8,CCN(CC)S(=O)(=O)c1ccc(-c2nnc(SCC(=O)N3c4ccccc4CC3C)n2CC)cc1 (stereo not given),inconclusive: -165%
9,CCN(C[C@H]1N[C@@](Cc2ccccc2)(C(=O)OC)[C@H]2C(=O)N(Cc3ccccc3)C(=O)[C@@H]12)S(=O)(=O)c1ccccc1,active: 60.6%
10,CCOC(=O)c1sc(NC(=O)CSc2nc3c(cc2C#N)CCCCC3)c(C#N)c1C,inactive: -2.29%
11,COc1cc(/C=C/C(=O)OCC(=O)Nc2c(C)n(C)n(-c3ccccc3)c2=O)ccc1O,inactive: 4.34%
12,O=C(COc1ccc2c(c1)oc(=O)c1ccccc12)NCCN1CCOCC1,inconclusive: -135%
13,O=C(/C=C/c1ccccc1Cl)Nc1ccccc1,inactive: 0.883%
14,Cc1cc(C)c2oc(-c3cccc(N)c3)nc2c1,inactive: 0.0924%
15,Cc1nnc(SCC2=C(C(=O)O)N3C(=O)[C@@H](NC(=O)Cn4cnnn4)[C@H]3SC2)s1,inconclusive: -47.1%
16,C#CCOCCOCCOCCNc1nc(N2CCN(C(=O)C([C@@H](C)CC)n3cc(C(N)Cc4ccc(O)cc4)nn3)CC2)nc(N2CCN(C(=O)[C@H](CCC(=O)O)n3cc(C(N)Cc4ccc(O)cc4)nn3)CC2)n1 (stereo not given in full),inconclusive: -218%
17,O=C(NCc1cccs1)c1cccnc1C(=O)O,active: 58.6%
18,CCOC(=O)N1CCN(c2ncnc3c2cnn3-c2ccc(Cl)cc2)CC1,inconclusive: -56.3%
19,CN1CC2([N+](=O)[O-])CC=C(Oc3ccccc3)C([N+](=O)[O-])(C1)C2 (stereo not given),inconclusive: -51.1%
20,CC(Oc1ccc2ccc(=O)oc2c1)C(=O)NCCN1CCOCC1 (stereo not given),inconclusive: -112%
21,Cc1cc(C)nc(SCCn2c(N(C)Cc3ccccc3)nc3c2c(=O)n(C)c(=O)n3C)n1,inconclusive: -148%
22,CC(C)(C)C(=O)NC1CCN(S(=O)(=O)c2cccc(C(F)(F)F)c2)CC1,inconclusive: -104%

row,Compound,inhibition
1,O=C(NNc1ccccc1[N+](=O)[O-])NC1CCCCC1,inconclusive: -57.2%
2,CCC(CC)c1nnc(NC(=O)C2CC(=O)N(CCc3ccc(OC)c(OC)c3)C2)s1 (stereo not given),inactive: 0.472%
3,COCCNC(=O)c1ccc(CSc2nc3ccccc3s2)cc1,inconclusive: -87.6%
4,CCCC1(c2ccccc2)NC(=O)N(CC(=O)NCc2ccc(C)cc2)C1=O (stereo not given),inactive: 12.8%
5,C#CCNc1c(C)c(C)nc2ncnn12,inconclusive: -197%
6,CCOC(=O)c1c(C)[nH]c(C)c1C(=O)COC(=O)/C=C/c1cccc(F)c1,inactive: -3.74%
7,CCOC(=O)c1c(-c2ccc(C)o2)csc1NC(=O)CSc1nnnn1-c1ccccc1,inconclusive: -71.1%
8,CC(=O)N(c1ccc(Cl)cc1)c1c[nH]c2ccccc12,inconclusive: -50.8%
9,COc1cccc(CNC(=O)C2CSC3(C)CCC(=O)N23)c1 (stereo not given),inactive: 9.05%
10,O=C(Nc1cccc(C(F)(F)F)c1)c1cccnn1,inactive: -0.758%
11,CCOc1cc(C(=O)Nc2ccc3c(c2)OCO3)ccc1OCCOc1ccccc1Cl,inconclusive: -158%
12,CC(=O)N1CCN(C(=O)CN2C(=O)NC(C)(c3ccc4ccccc4c3)C2=O)CC1 (stereo not given),inactive: -13.9%
13,COc1cc(-c2nc(C(=O)NC3CCCCC3)cc3c2[nH]c2ccccc23)cc(OC)c1OC,inconclusive: -414%
14,CCOc1ccc(/C=N/Nc2ccc(C(F)(F)F)cc2[N+](=O)[O-])cc1O,inactive: -20.8%
15,O=C(NCc1ccncc1)Nc1ccc(Cl)cc1Cl,inactive: -6.67%
16,Cn1nc(-c2ccc(Cl)cc2)c2cc(C(=O)NCCCN3CCOCC3)sc21,inactive: 22.7%
17,CC(C)CNC(=S)NNC(=O)c1ccc2c(c1)OCO2,inactive: 4.83%
18,N/C(=N\OC(=O)/C=C/c1ccccc1)c1ccccc1,inactive: -0.138%
19,CCOC(=O)C1CCN(C(=O)C(C)Sc2ccc(Cl)cc2)CC1 (stereo not given),inconclusive: -41.9%
20,Cc1ccc(C)c(S(=O)(=O)NCC(c2ccco2)N2CCc3ccccc3C2)c1 (stereo not given),inconclusive: -128%
21,O=C(COC(=O)c1ccco1)NNC(=O)c1ccc(Cl)cc1,active: 81.2%
22,O=C1CCc2cc(NS(=O)(=O)c3ccccc3)cc3c2N1CCC3,inconclusive: -52.1%

row,Compound,inhibition
1,COc1ccc(C(=O)/C=C/N2CCCCC2)cc1OC,inconclusive: -65%
2,N=c1c(S(=O)(=O)c2ccc(Br)cc2)cc2c(=O)n3ccccc3nc2n1C1CCCCC1,inconclusive: -140%
3,Cc1cccc(CN2CCC(Oc3ccc(C(=O)N4CCCC4)cc3)CC2)n1,active: 65.7%
4,COc1cc(OC)c(NC(=O)CCNC(=O)Cn2cnc3ccccc3c2=O)cc1Cl,inconclusive: -63%
5,Cc1cc(N2C(=O)C(=O)/C(=C(/O)c3ccc(F)cc3)C2c2cccc(Br)c2)no1 (stereo not given),active: 56.2%
6,COc1ccc(C(=O)N=C2SC3CS(=O)(=O)CC3N2c2ccc(C(C)=O)cc2)cc1 (stereo not given),inconclusive: -93.8%
7,O=c1oc2ccccc2cc1-c1nc2ccccc2o1,inactive: 4.78%
8,C=CCOC(=O)C1=C(C)NC(=O)NC1/C=C/c1ccccc1 (stereo not given),inconclusive: -50.1%
9,COc1ccccc1CC(=O)N(Cc1ccccc1)c1cccc(C)c1,inconclusive: -58.8%
10,CC(C)(C)NS(=O)(=O)c1cccc2nsnc12,inconclusive: -74%
11,Cc1ccc(NC(=O)C2CCCN2C(=O)OCc2ccccc2)cc1F (stereo not given),inactive: 6.58%
12,Cc1c(CCOC(=O)C2C3CC4CC(C3)CC2C4)sc[n+]1CC(=O)c1ccc(Br)cc1 (stereo not given),inactive: -7.19%
13,COCC(=O)N1CCC(Oc2ccc(C(=O)NC(C)c3csc(C)n3)cc2)CC1 (stereo not given),inconclusive: -57.4%
14,Cc1ncc(CO)c(/C=N/NC(=O)c2cc(O)c(O)c(O)c2)c1O,inconclusive: -50.1%
15,CCOC(=O)c1ccc(NC(=O)C(=O)NCc2ccncc2)cc1,inactive: -2.56%
16,COc1ccc(C(=O)N/N=C/C(C)c2ccccc2)cc1OC (stereo not given),inconclusive: -67.9%
17,CCOc1ccc(CCNC(=O)c2ccccc2OCc2c(C)noc2C)cc1OCC,inconclusive: -178%
18,O=S(=O)(NCC(c1cccnc1)N1CCN(Cc2ccccc2)CC1)c1ccc(F)cc1 (stereo not given),inconclusive: -51.7%
19,CN(C(=O)COC(=O)c1ccc(Cl)cc1N)C1CCCCC1,inactive: 5.85%
20,CCOc1ccc(NC(=O)c2sc3nc(N4CCOCC4)c4c(c3c2N)CC(C)(C)OC4)cc1,inconclusive: -87.2%
21,CCOC(=O)C1CCCC(NS(=O)(=O)c2ccc(NC(C)=O)cc2)C1 (stereo not given),inconclusive: -64.9%
22,Cc1cc(=O)oc2cc(OCC(=O)N3CCc4ccccc4C3)ccc12,inactive: 0.425%

# Reformatted bar-delimited: two of the compounds above
row | Compound | inhibition
11 | Cc1ccc(NC(=O)C2CCCN2C(=O)OCc2ccccc2)cc1F (stereo not given) | inactive: 6.58%
12 | Cc1c(CCOC(=O)C2C3CC4CC(C3)CC2C4)sc[n+]1CC(=O)c1ccc(Br)cc1 (stereo not given) | inactive: -7.19%

# Remaining list, next part

row,Compound,inhibition
1,COc1ccc(Cc2nnc(NC(=O)Cn3cnc4c3c(=O)n(C)c(=O)n4C)s2)cc1,inconclusive: -142%
2,CC(C)CCSc1nc(N)c(C#N)cc1C#N,inactive: -5.36%
3,CCOC(=O)c1c(C)[nH]c(C)c1C(=O)CSc1nnc(-c2ccco2)n1Cc1ccccc1,inconclusive: -86.6%
4,Cc1ccc2nc(NC(=O)c3ccc4c(c3)OCO4)sc2c1,inactive: 14.1%
5,Cc1cc(=O)oc2c(C)c(OCC(=O)NCC3CCC(C(=O)O)CC3)ccc12 (stereo not given),inconclusive: -104%
6,O=C(COc1ccc2c3c(c(=O)oc2c1)CCCC3)N1C[C@H]2C[C@@H](C1)c1cccc(=O)n1C2,inconclusive: -220%
7,O=C(/C=C/c1ccc2c(c1)OCCCO2)c1ccc2ccccc2c1O,inactive: -1.57%
8,Cc1noc(C)c1S(=O)(=O)N(CC(=O)NC(C)c1ccccc1)c1ccc(C(C)C)cc1 (stereo not given),inconclusive: -55.7%
9,O=C(NNS(=O)(=O)c1ccccc1)C1CCN(S(=O)(=O)c2ccc(Cl)cc2)CC1,inconclusive: -71.9%
10,Cc1ccc(C)c(NC(=O)COC(=O)CNC(=O)c2ccccc2Cl)c1,inconclusive: -69.6%
11,CCSc1nnc(NC(=O)c2ccccc2)s1,inactive: 3.85%
12,Nc1nnc(CSCc2ccc(Cl)cc2Cl)s1,inconclusive: -26.7%
13,CC(C)C(=O)NC(c1cccc([N+](=O)[O-])c1)c1c(O)ccc2ccccc12 (stereo not given),inconclusive: -69.4%
14,O=C(NCCCCCCNC(=O)OCCO)OCCO,inconclusive: -176%
15,CCOC(=O)[C@H]1[C@H]2COc3ccc(OC)cc3[C@@H]2N2C(=O)c3cc(C)ccc3NC(=O)[C@@]12C,active: 51.6%
16,O=C(c1ccc(CS(=O)(=O)c2ccc(Br)cc2)o1)N1CCN(c2ccc(F)cc2)CC1,inconclusive: -101%
17,CCOC(=O)C(NC(=O)c1ccccc1)(Nc1cc(C)on1)C(F)(F)F (stereo not given),inconclusive: -68.9%
18,O=c1oc2cc(Oc3c([N+](=O)[O-])cc(C(F)(F)F)cc3[N+](=O)[O-])ccc2c2c1CCCC2,inconclusive: -58.2%
19,O=C(COc1ccc(Cl)cc1Cl)Nc1ccc(C(=O)Nc2ccccc2C(=O)O)cc1,inactive: -21.9%

# — PubChem BioAssay AID2099 (Broad Institute, 2009)
